The results in this text go back to article PMC3907535.

Experiment [1] concerns the target T1, SPIN1:HA (rice (Oryza sativa)) (UniProt Q75GR5).
T1 sequence: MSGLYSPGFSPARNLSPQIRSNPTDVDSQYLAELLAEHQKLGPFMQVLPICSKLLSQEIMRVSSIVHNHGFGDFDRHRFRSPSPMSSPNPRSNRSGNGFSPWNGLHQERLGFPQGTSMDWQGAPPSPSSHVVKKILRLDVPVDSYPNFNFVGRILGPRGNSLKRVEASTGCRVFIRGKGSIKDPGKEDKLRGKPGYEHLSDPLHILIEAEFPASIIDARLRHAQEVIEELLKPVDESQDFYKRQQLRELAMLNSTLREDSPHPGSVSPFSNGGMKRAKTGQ
The experiment can be described thus: co-IP; RFP:RBS1 and SPIN1:HA co-expressed in N. benthamiana by agroinfiltration; anti-HA agarose, 4°C overnight; blots with anti-HA and anti-RFP.

The target in experiment [2] is T2, NYFP-SPIN1 (rice (Oryza sativa)) (UniProt Q75GR5).
T2 sequence: T1 sequence
The experiment can be described thus: split reporter; BiFC with NYFP and CYFP fusions in transfected rice protoplasts, fluorescence microscopy.

No constants are given. Whether binding was seen depends on the method and setting. In cells and extracts the contact can be indirect. Binding can be weak; no strength is given. Tags and fused reporters may be left off the sequences shown.

Take RFP:RBS1 (rice (Oryza sativa)): in experiment [1], the binding result is recorded as “binds”.

On to CYFP-RBS1 (rice (Oryza sativa)), for which the binding result in experiment [2] is on record as “binds”.
